# Screening data, single-dose tests

Amino acid sequences for entries named in this document (tags omitted).
UniProt I6X8D2, whole entry: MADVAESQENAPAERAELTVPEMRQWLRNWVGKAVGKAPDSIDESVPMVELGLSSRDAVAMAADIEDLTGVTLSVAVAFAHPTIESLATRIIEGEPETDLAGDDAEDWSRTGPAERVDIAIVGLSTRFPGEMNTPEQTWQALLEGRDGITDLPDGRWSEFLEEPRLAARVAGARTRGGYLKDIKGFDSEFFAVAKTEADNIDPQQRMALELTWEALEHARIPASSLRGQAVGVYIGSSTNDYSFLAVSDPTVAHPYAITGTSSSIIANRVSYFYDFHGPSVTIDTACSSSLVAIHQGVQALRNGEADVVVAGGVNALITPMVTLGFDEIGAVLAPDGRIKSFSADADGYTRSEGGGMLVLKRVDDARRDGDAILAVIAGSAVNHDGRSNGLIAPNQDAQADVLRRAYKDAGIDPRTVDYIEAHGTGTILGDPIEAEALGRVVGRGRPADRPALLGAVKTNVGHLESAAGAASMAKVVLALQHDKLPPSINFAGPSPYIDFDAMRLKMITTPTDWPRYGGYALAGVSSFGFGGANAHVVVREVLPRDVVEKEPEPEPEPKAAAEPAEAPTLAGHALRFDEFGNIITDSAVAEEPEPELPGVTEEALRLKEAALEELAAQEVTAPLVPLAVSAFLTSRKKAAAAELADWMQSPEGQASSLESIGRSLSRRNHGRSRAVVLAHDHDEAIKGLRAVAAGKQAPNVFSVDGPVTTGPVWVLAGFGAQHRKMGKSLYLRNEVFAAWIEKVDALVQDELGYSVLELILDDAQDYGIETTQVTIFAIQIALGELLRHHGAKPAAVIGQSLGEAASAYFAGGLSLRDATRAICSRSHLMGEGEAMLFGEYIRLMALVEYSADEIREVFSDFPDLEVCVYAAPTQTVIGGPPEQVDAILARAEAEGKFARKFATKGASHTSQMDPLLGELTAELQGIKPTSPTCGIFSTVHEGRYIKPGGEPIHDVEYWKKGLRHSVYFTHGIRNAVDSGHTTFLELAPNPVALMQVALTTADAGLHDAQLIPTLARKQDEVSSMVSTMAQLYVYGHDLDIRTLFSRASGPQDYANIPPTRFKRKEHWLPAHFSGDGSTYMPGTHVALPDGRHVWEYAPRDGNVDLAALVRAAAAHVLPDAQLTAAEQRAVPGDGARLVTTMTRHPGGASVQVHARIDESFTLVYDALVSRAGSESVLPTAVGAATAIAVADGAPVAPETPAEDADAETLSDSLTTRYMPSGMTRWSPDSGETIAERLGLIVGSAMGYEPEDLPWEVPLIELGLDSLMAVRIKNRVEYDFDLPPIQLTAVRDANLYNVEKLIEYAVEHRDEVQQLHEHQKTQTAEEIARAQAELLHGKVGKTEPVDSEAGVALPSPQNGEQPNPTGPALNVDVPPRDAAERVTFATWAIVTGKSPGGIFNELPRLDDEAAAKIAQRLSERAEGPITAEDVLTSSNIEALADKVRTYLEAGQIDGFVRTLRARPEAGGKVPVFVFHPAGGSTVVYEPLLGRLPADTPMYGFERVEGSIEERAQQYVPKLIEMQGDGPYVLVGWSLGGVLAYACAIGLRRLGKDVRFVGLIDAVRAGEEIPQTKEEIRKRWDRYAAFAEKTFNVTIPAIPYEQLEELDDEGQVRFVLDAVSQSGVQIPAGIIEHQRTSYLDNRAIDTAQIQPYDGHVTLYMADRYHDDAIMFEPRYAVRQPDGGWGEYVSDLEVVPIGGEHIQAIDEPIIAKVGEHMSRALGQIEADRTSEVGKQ

Measurements from “University of Dundee, Small-Polar-MMV Screening Library” (2021), ChEMBL document CHEMBL3988442.

The filed quantity is “Percent Effect” (%).
The controls that fix the scale are not given in the record; negative values are as filed.
This is an unselected part of the compounds tested.

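Enzyme assay of the thioesterase domain of polyketide synthase 13; the read-out is not stated. Target: Polyketide synthase Pks13, Mycobacterium tuberculosis (UniProt I6X8D2). Tested at 30 µM. Higher reads as stronger inhibition (inferred from which compounds were picked for retests). Of about 67,000 compounds tested this way, about 300 (0.46%) reached 50% or more in at least one test.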

{"structure": "CCOc1ccc(C(=O)N2CCN(c3nccn3C)CC2)cc1", "Percent Effect": -37.44}
{"structure": "O=C(CC1CC1)N(Cc1cccnc1)CC1CCN(C2CCCC2)CC1", "Percent Effect": -27.96}
{"structure": "O=C(NCc1cccnc1)N[C@H]1CC[C@@]2(CCC(=O)N2CC2CC2)CC1", "Percent Effect": -13.64}
{"structure": "Cc1nn(C)c(C)c1-c1cc(-c2cnn(C)c2C2CC2)c(C#N)c(N)n1", "Percent Effect": -17.62}
{"structure": "COc1cccc(-c2n[nH]c3c2CN(C(=O)c2ccncc2)CC3)c1", "Percent Effect": -57.71}
{"structure": "C[C@]1(O)CCN(Cc2ncccc2F)C[C@@H]1Oc1cccc(F)c1", "Percent Effect": 4.334}
{"structure": "COc1cc(-n2cc(CCO)cn2)ccc1NC(C)=O", "Percent Effect": -38.56}
{"structure": "CCC[C@H]1CN(CCOC)C[C@@H]1NC(=O)Cn1cc(C)cn1", "Percent Effect": -26.73}
{"structure": "CCOc1ccccc1-c1cc(N)[nH]n1", "Percent Effect": -7.236}
{"structure": "COCCC1(C(=O)O)CCCN(CCc2ccccc2)C1", "stereo": "centres unmarked", "Percent Effect": -9.699}
{"structure": "CC(C)c1cc(NCC2(CO)CCCC2)ncn1", "Percent Effect": 0.5107}
{"structure": "Cc1nnc(SCC(=O)c2cc3c(cc2Cl)NC(=O)C3)s1", "Percent Effect": 9.725}
{"structure": "Cc1cnn(CC2CN(CC(=O)N(C)Cc3cnn(C)c3)CCO2)c1", "stereo": "centres unmarked", "Percent Effect": -11.33}
{"structure": "COc1cccc(CC2CN(C3CC(C)(C)NC(C)(C)C3)CCO2)c1", "stereo": "centres unmarked", "Percent Effect": 18.34}
{"structure": "Cn1cc(C2CCCN2CC(=O)N(CCC#N)Cc2ccco2)cn1", "stereo": "centres unmarked", "Percent Effect": -4.716}
{"structure": "CN(C)C(=O)N1CCC2(CCCN(c3ncccn3)C2)C1", "stereo": "centres unmarked", "Percent Effect": -1.818}
{"structure": "Cc1noc(C)c1CN(C)C(=O)c1n[nH]c(N)c1-c1ccccc1", "Percent Effect": -16.86}
{"structure": "CN(Cc1cnn(C)c1)CC(O)c1ccc2c(c1)OCCCO2", "stereo": "centres unmarked", "Percent Effect": -11.84}
{"structure": "Cc1cccnc1CC(C)Nc1ncc(C)c(N(C)C)n1", "stereo": "centres unmarked", "Percent Effect": -25.42}
{"structure": "CN(C)c1ccc(C(=O)N2C[C@@H](CN3CCCCC3)[C@@H](CO)C2)cc1", "Percent Effect": -21.69}
{"structure": "CCN(C)C[C@@H]1CN(C(=O)c2cc(C(F)(F)F)n[nH]2)C[C@@H]1CO", "Percent Effect": 11.5}
{"structure": "CCc1nc(N2CCN(CCOC)CC2)c2cnn(C)c2n1", "Percent Effect": -10.96}
{"structure": "Cc1ccc(CN2CC[C@H]3C(=O)N(c4cccnc4)CCO[C@H]3C2)o1", "Percent Effect": -17.56}
{"structure": "Cn1ncc2c1NC(=O)CC2c1cc(Cl)ccc1F", "stereo": "centres unmarked", "Percent Effect": -4.03}
{"structure": "Cn1cc(CN2CCCC3(CCCCN3S(C)(=O)=O)C2)cn1", "stereo": "centres unmarked", "Percent Effect": -0.8474}
{"structure": "CN1CCc2nc(C3CCCN(C(=O)CC(C)(C)C)C3)ncc2C1", "stereo": "centres unmarked", "Percent Effect": 5.04}
{"structure": "COCCC(=O)N1CCC(c2cncc(Oc3cccnc3)n2)CC1", "Percent Effect": -0.8874}
{"structure": "CC1(C)CN(S(=O)(=O)N2CCCC2)CC1c1ccccc1", "stereo": "centres unmarked", "Percent Effect": 10.68}
{"structure": "N#Cc1ccc(C(=O)N2CC[C@H]3[C@@H]2CCC(=O)N3c2ccccc2)cc1", "Percent Effect": -19.9}
{"structure": "CC(C)[C@H](N)c1nnc(SCC(=O)Nc2ccc(Br)cc2)o1", "Percent Effect": -14.13}
{"structure": "O=C(C1CC1)N1CCC(C(=O)N2CCC(c3ccc(F)cc3)C2)CC1", "stereo": "centres unmarked", "Percent Effect": 18.09}
{"structure": "CCc1nncn1CCNC(=O)N1CCCC(Cc2nccn2C)C1", "stereo": "centres unmarked", "Percent Effect": -11.18}
{"structure": "CCC1(C)Cc2ccccc2-c2nc(NCCCO)nc(O)c21", "stereo": "centres unmarked", "Percent Effect": 37.88}
{"structure": "O=C(CCNC(=O)c1ccoc1)Nc1cc(F)ccc1F", "Percent Effect": -19.96}
{"structure": "CNS(=O)(=O)c1ccc(CNC(=O)Nc2cc(C)on2)s1", "Percent Effect": -29.16}
{"structure": "O=C1C[C@H]2CC[C@@H](CN1)N2C(=O)CCc1ccsc1", "Percent Effect": -18.57}
{"structure": "Cc1cc(=O)n(CC(=O)NCCC(C)C)c(-c2cccc(Cl)c2)n1", "Percent Effect": -14.71}
{"structure": "CC(C)Oc1cccc(C(=O)C2CCCN(C(=O)c3ccoc3)C2)c1", "stereo": "centres unmarked", "Percent Effect": 27.16}
{"structure": "OCc1n[nH]c(-c2ccc(F)cc2)n1", "Percent Effect": -15.14}
{"structure": "O=C(Nc1cccc(CNCc2cccs2)c1)C1CCCC1", "Percent Effect": -11.8}
{"structure": "COc1ncc(C(=O)N(Cc2cnn(C)c2)C(C)C)cn1", "Percent Effect": -0.7952}
{"structure": "O=C1CN(S(=O)(=O)CC(F)(F)F)CC(O)CN1CCCc1ccccc1", "stereo": "centres unmarked", "Percent Effect": 15.83}
{"structure": "O=C(c1ccsc1)N1CCc2ncc(Cn3cncn3)n2CC1", "Percent Effect": -12.9}
{"structure": "c1cnnc(N2CCCC(NCc3nnc(-c4ccco4)o3)C2)c1", "stereo": "centres unmarked", "Percent Effect": -2.598}
{"structure": "CC(C)[C@H](NS(C)(=O)=O)C(=O)NCc1cc(-c2ccco2)n[nH]1", "Percent Effect": 28.9}
{"structure": "CC(C)c1nnc2n1CC(CNCc1ccsc1)CC2", "stereo": "centres unmarked", "Percent Effect": -12.55}
{"structure": "O=C1CCC2(CCN(Cc3ccc(F)cc3Cl)CC2)CN1CCO", "Percent Effect": 0.2091}
{"structure": "Cn1ccc2cc(C(=O)N3CCOCC3)ccc21", "Percent Effect": -15.43}
{"structure": "c1cncc(CN2CC(Cc3nccc4cc[nH]c34)C2)c1", "Percent Effect": 8.894}
{"structure": "OC(c1cccs1)C1CCN(c2ncccn2)CC1", "stereo": "centres unmarked", "Percent Effect": -7.963}
{"structure": "C=C(C)CNC(=O)C1CCC(=O)N(C2CCCC2)C1", "stereo": "centres unmarked", "Percent Effect": -22.42}
{"structure": "CC1CCc2nn(CCNC(=O)Cc3ccccc3F)c(=O)cc2C1", "stereo": "centres unmarked", "Percent Effect": -24}
{"structure": "COc1ccc(-c2cc(C3CC3)c(C#N)c(N)n2)cc1F", "Percent Effect": -126.2}
{"structure": "COCC1c2nnn(CC3CC3)c2CCN1C(=O)c1ccncn1", "stereo": "centres unmarked", "Percent Effect": 3.083}
{"structure": "O=C(NC[C@H]1OC[C@@H]2CN(Cc3ccco3)CC[C@@H]21)c1cscn1", "Percent Effect": -16.05}
{"structure": "O=C(c1ccncc1)N1CCN2C[C@H](Oc3cncnc3)C[C@H]2C1", "Percent Effect": -36.91}
{"structure": "Cc1cc2c(=O)n(CCSc3ncn[nH]3)cnc2s1", "Percent Effect": -60.58}
{"structure": "CC(C)=CCN1CC2(CCN(Cc3ncc[nH]3)CC2)CC1=O", "Percent Effect": 13.35}
{"structure": "O=C(CCc1cc2n(n1)CCCNC2)N1CCN(C2CCCC2)C(=O)C1", "Percent Effect": -22.31}

8 of the entries, repeated:

With O=C(CCc1cc2n(n1)CCCNC2)N1CCN(C2CCCC2)C(=O)C1 the screen gave -22.31%.
With c1cncc(CN2CC(Cc3nccc4cc[nH]c34)C2)c1 the screen gave 8.894%.
With OC(c1cccs1)C1CCN(c2ncccn2)CC1 (centres unmarked) the screen gave -7.963%.
With Cc1cnn(CC2CN(CC(=O)N(C)Cc3cnn(C)c3)CCO2)c1 (centres unmarked) the screen gave -11.33%.
With O=C1CCC2(CCN(Cc3ccc(F)cc3Cl)CC2)CN1CCO the screen gave 0.2091%.
With Cc1cccnc1CC(C)Nc1ncc(C)c(N(C)C)n1 (centres unmarked) the screen gave -25.42%.
With OCc1n[nH]c(-c2ccc(F)cc2)n1 the screen gave -15.14%.
With O=C(NCc1cccnc1)N[C@H]1CC[C@@]2(CCC(=O)N2CC2CC2)CC1 the screen gave -13.64%.